From the supplement of paper PMC11732987, “Enantioselective OTUD7B fragment discovery through chemoproteomics screening and high-throughput optimisation” (Communications Chemistry, 2025)
The other results are listed elsewhere or left out. The data scatter; read single values as rough.

target: T1, FBXO45 C17 (UniProt P0C2W1); test: log2 mean competition ratio of IA-DTB cysteine labelling (DMSO/compound) (log2 ratio); higher = stronger cysteine engagement by compound; conditions: 50 µM; treatment time: 4 h; cell line lysate: HEK293T
T1 sequence (whole entry): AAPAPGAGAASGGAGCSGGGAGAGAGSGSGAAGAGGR
Method: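 IA-DTB competitive cysteine chemoproteomics in HEK293T RIPA lysate. Lysates were treated with compound 29 or 30 at 50 or 200 µM for 4 h, then IA-DTB (500 µM, 1 h), trypsin-digested, NeutrAvidin-enriched and analysed by diaPASEF. Competition ratio = intensity DMSO / intensity compound (n=4 treated, n=64 DMSO); binding: mean log2 CR ≥ 1 and p ≤ 0.05 plus QC filters. Target is the cysteine site.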

Compound	log2 mean competition ratio
O=C(CCl)N[C@H]1CCCc2ccccc21	-0.317
O=C(CCl)N[C@@H]1CCCc2ccccc21	-0.227

same assay, conditions: 200 µM; treatment time: 4 h; cell line lysate: HEK293T

Compound	log2 mean competition ratio
O=C(CCl)N[C@H]1CCCc2ccccc21	-0.162
O=C(CCl)N[C@@H]1CCCc2ccccc21	-0.0113
